Results reported in article PMC11551761.
The comparison behind a weaker result is the experiment's own reference, which may not be listed here. For some of these results: Construct, isoform or probe ends are uncertain for at least one entry.

Amino acid sequences for entries named in this document (tags omitted). Residues count along the entry.
UniProt P18858, whole entry: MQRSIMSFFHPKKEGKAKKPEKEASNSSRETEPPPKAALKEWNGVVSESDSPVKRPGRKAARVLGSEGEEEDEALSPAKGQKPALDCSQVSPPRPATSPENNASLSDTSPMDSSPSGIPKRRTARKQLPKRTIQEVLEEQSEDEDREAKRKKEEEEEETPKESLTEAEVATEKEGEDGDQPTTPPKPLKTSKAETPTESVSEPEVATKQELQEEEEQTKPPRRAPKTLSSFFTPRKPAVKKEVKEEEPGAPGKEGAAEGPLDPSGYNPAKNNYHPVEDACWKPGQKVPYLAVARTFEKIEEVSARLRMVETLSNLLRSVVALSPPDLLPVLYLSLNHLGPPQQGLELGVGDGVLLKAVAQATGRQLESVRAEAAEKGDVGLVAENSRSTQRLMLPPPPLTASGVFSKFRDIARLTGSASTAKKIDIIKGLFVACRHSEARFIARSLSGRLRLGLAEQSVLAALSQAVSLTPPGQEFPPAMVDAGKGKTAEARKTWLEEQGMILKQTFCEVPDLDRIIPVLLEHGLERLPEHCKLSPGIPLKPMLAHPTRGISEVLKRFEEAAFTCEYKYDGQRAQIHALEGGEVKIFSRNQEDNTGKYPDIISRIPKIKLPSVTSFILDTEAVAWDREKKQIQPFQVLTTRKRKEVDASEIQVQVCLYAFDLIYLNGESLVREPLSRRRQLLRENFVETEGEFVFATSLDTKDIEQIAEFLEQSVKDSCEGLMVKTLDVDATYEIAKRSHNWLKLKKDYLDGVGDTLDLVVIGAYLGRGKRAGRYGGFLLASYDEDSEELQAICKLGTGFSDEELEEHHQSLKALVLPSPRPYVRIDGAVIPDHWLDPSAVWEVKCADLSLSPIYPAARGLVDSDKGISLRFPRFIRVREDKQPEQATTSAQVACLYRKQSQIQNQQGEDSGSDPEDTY
UniProt P18858, 261-919: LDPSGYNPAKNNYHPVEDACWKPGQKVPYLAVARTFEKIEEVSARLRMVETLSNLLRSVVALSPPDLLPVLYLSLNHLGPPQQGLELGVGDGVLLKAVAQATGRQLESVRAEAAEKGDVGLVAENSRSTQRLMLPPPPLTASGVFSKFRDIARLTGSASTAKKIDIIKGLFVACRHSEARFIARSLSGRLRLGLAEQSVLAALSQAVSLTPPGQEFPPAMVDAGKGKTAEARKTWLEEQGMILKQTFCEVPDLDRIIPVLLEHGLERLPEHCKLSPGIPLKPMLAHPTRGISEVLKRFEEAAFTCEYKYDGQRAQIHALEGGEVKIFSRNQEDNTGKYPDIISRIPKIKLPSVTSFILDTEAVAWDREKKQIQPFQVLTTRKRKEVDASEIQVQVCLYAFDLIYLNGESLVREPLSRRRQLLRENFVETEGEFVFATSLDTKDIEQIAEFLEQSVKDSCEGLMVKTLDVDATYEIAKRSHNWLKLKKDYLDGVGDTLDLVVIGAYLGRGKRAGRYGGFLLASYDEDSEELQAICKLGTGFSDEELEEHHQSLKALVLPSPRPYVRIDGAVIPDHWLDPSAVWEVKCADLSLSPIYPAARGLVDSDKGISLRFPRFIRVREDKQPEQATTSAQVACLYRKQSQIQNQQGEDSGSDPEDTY

Experiments:
LIG1 full-length (human) = LIG1 full-length (human) (UniProt P18858); test: single-molecule TIRF; conditions: 1 mM HEPES pH 7.4, 20 mM NaCl, 0.02% BSA, 0.002% Tween 20 (BLI, C-Trap, TIRF; TIRF plus oxygen scavenger and 10 mM Trolox), recombinant protein, residues 1-919
[1] = biological target: LIG1 C-terminal del1-260 (human) (UniProt P18858); test: single-molecule TIRF; conditions: no Mg2+, bound lifetimes 0.8 s (80%), 3.5 s (20%), unbound 98 s; 5'-phosphate on Down; 3'-OH at nick; 1 mM HEPES pH 7.4, 20 mM NaCl, 0.02% BSA, 0.002% Tween 20 (BLI, C-Trap, TIRF; TIRF plus oxygen scavenger and 10 mM Trolox); recombinant protein; residues 261-919; label: 5'-biotin on Up, 3'-AF488 on Down

## CATGGGCGGCATGAACCAGAGGCCCATCCTCACC (double strand) [34-mer no-nick DNA (Top / Template T)]
LIG1 full-length (human); no Mg2+, bound lifetimes 0.26 s (80%), 2.8 s (20%), label: 5'-biotin and 3'-AF488 on Top
  binding result: binds more weakly

## CATGGGCGGCATGAACCA / GAGGCCCATCCTCACC / GGTGAGGATGGGCCTCTGGTTCATGCCGCCCATG [34-mer single-nick DNA (Up-OH + Down / Template T)]
LIG1 full-length (human); 10 mM Mg2+ (nick sealing expected), bound lifetimes 0.3 s (80%), 2.9 s (20%), 5'-phosphate on Down, 3'-OH at nick, label: 5'-biotin on Up, 3'-AF488 on Down
  binding result: binds more weakly
[1]
  binding result: binds more weakly

## CATGGGCGGCATGAACCC / GAGGCCCATCCTCACC / GGTGAGGATGGGCCTCGGGTTCATGCCGCCCATG [34-mer single-nick DNA, 3'-ddC (Up-ddC + Down / Template G)]
LIG1 full-length (human); similar to unmodified nick DNA, 3'-ddC (X, last nt of Up), non-ligatable, 5'-phosphate on Down, label: 5'-biotin on Up, 3'-AF488 on Down
  binding result: binds
